Results are given in words; binding and its absence hold for the method and conditions named. Binding seen in cells or lysates may run through a third protein. Some binding calls cover weakened binding; strength is not graded here. For some assays here: Sequences can lack the tags named with a protein.

For assay [1], the target named is LYAR (Co-IP in K562 and HUDEP-2 cells) (UniProt Q9NX58). Kind of assay: co-IP.
For assay [2], the target named is LYAR (GST pull-down) (UniProt Q9NX58). Kind of assay: pull-down.

B1: Fibrillarin (FBL) (protein, UniProt P22087 1-321)
chain: MKPGFSPRGGGFGGRGGFGDRGGRGGRGGFGGGRGRGGGFRGRGRGGGGGGGGGGGGGRGGGGFHSGGNRGRGRGGKRGNQSGKNVMVEPHRHEGVFICRGKEDALVTKNLVPGESVYGEKRVSISEGDDKIEYRAWNPFRSKLAAAILGGVDQIHIKPGAKVLYLGAASGTTVSHVSDIVGPDGLVYAVEFSHRSGRDLINLAKKRTNIIPVIEDARHPHKYRMLIAMVDVIFADVAQPDQTRIVALNAHTFLRNGGHFVISIKANCIDSTASAEAVFASEVKKMQQENMKPQEQLTLEPYERDHAVVVGVYRPPPKVKN
Consider B1, for which the binding entry in assay [1] is reported as “binds”.

B2: FBL (GST pull-down) (protein, UniProt P22087 1-321)
chain: MKPGFSPRGGGFGGRGGFGDRGGRGGRGGFGGGRGRGGGFRGRGRGGGGGGGGGGGGGRGGGGFHSGGNRGRGRGGKRGNQSGKNVMVEPHRHEGVFICRGKEDALVTKNLVPGESVYGEKRVSISEGDDKIEYRAWNPFRSKLAAAILGGVDQIHIKPGAKVLYLGAASGTTVSHVSDIVGPDGLVYAVEFSHRSGRDLINLAKKRTNIIPVIEDARHPHKYRMLIAMVDVIFADVAQPDQTRIVALNAHTFLRNGGHFVISIKANCIDSTASAEAVFASEVKKMQQENMKPQEQLTLEPYERDHAVVVGVYRPPPKVKN
Take B2: the binding result in assay [2] is listed as “binds”.

These data come from paper doi:10.1101/2024.06.25.600532.
